According to the supplement of paper PMC10849652:
The other results are listed elsewhere or left out.

By UniProt entry, the sequences of proteins in these tests, tags left out. Where a name states a change or a piece, a line headed by the entry shows the natural chain unless it says otherwise.
UniProt Q5JRK9: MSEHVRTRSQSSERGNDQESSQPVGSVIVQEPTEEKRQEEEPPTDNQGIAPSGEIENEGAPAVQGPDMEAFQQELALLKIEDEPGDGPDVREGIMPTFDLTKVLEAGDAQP
UniProt Q9BWT3: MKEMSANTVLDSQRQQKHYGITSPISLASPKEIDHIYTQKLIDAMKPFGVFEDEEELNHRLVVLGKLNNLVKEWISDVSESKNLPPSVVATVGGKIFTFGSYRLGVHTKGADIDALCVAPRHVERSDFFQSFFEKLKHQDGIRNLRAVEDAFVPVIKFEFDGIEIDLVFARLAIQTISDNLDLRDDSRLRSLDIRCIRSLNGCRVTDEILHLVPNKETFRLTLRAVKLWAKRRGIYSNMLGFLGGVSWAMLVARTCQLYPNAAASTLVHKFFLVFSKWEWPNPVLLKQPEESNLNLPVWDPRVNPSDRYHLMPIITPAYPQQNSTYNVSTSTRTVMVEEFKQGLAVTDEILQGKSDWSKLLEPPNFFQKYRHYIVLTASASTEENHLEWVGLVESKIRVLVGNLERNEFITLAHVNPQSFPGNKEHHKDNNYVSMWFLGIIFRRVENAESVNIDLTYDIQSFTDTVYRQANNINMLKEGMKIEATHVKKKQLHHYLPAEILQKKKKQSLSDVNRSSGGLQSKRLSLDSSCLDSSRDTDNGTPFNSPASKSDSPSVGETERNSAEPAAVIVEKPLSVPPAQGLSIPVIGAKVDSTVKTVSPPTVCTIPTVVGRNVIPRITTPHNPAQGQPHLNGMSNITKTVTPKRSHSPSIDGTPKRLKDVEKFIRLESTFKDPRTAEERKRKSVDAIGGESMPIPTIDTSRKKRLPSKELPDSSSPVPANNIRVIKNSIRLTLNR
UniProt Q9BY11: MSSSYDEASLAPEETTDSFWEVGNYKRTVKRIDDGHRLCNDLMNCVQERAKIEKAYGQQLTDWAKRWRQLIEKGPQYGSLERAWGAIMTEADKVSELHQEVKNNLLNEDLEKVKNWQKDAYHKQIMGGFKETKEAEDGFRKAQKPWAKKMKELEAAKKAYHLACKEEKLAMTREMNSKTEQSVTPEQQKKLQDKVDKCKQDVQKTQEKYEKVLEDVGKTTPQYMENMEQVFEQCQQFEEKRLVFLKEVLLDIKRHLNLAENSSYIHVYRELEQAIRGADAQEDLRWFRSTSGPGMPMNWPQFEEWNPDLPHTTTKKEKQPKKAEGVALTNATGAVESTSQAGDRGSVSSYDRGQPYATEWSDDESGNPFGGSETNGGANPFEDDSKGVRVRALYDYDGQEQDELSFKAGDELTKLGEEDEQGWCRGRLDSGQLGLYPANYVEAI
UniProt O15381: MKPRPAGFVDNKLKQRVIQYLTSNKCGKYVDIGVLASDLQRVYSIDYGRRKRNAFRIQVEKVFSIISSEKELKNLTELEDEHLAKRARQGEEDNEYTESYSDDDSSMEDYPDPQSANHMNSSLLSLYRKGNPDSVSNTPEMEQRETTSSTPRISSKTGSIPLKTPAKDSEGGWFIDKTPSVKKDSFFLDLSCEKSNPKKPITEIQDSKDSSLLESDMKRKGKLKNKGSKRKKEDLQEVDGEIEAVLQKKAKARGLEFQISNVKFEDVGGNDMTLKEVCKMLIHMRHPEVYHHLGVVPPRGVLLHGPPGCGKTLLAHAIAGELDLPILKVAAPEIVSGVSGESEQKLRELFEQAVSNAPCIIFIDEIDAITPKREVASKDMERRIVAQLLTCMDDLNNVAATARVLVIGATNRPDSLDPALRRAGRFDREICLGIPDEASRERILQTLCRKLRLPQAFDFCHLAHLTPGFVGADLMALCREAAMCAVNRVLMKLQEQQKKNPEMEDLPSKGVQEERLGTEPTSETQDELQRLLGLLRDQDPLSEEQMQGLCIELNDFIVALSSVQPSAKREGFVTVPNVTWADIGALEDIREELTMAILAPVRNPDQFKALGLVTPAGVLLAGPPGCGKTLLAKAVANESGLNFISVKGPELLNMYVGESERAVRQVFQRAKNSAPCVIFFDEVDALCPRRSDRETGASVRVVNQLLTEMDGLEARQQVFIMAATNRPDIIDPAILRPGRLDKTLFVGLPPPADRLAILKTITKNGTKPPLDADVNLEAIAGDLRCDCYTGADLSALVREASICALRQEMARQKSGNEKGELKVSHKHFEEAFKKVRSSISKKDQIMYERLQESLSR
UniProt Q9H8K7: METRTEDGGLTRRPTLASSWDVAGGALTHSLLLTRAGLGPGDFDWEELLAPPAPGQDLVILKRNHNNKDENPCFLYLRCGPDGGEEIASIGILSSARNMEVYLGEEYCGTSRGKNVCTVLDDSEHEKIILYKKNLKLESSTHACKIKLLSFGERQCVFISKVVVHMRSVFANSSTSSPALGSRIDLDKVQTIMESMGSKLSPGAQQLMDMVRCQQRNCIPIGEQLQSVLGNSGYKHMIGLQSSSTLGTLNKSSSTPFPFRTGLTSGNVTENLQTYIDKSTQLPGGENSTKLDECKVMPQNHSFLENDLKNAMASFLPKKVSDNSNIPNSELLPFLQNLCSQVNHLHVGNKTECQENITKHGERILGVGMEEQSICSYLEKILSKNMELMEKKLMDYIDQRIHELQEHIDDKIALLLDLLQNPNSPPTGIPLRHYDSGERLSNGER
UniProt Q86U42: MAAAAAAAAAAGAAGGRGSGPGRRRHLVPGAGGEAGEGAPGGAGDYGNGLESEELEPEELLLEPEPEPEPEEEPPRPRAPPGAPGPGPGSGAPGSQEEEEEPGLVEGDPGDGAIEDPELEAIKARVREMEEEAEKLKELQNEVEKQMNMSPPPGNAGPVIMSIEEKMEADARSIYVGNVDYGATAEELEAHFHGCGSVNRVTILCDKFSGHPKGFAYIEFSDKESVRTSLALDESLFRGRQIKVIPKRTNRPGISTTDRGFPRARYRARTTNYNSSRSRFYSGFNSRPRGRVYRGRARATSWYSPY

Columns and labels:
Test in all cases: log2 fold change, soluble protein after heating vs DMSO (PISA); higher = thermal stabilisation; K562 lysate, 10 uM; active = over 0.2 and 3.5 SD of the protein, either way, in both replicates (recomputed)
vemurafenib = compound: CCCS(=O)(=O)Nc1ccc(F)c(C(=O)c2c[nH]c3ncc(-c4ccc(Cl)cc4)cc23)c1F [vemurafenib]
Procedure, shortened: (§1)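 To prepare the extract, K562 pellets were dounce-homogenised in PBS pH 7.4 with 1 mM MgCl2, giving crude material at 1 mg/mL protein. This was treated with 10 μM compound for 30 min, then heated in aliquots for 3 min over 48°C-58°C before pooling and addition of NP-40 to 0.5% at 4°C. Centrifugation at 21,000xg for 90 min left soluble protein in the supernatant, which TMTpro 16plex LC-MS/MS quantified with equalised channel sums. Results are log-two fold changes in thermal stability compared with solvent controls, from duplicates.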

[1] = compound: CCCS(=O)(=O)Nc1ccc(F)c(C(=O)c2c[nH]c3ncc(Cl)cc23)c1F
Procedure, shortened: as §1

[2] = compound: CC[C@@H]1C(=O)N(C)c2cnc(Nc3ccc(C(=O)NC4CCN(C)CC4)cc3OC)nc2N1C1CCCC1
Procedure, shortened: as §1

volasertib = compound: CC[C@@H]1C(=O)N(C)c2cnc(Nc3ccc(C(=O)N[C@H]4CC[C@H](N5CCN(CC6CC6)CC5)CC4)cc3OC)nc2N1C(C)C [volasertib]
Procedure, shortened: as §1

defactinib = compound: CNC(=O)c1ccc(Nc2ncc(C(F)(F)F)c(NCc3nccnc3N(C)S(C)(=O)=O)n2)cc1 [defactinib]
Procedure, shortened: as §1

encorafenib = compound: COC(=O)N[C@@H](C)CNc1nccc(-c2cn(C(C)C)nc2-c2cc(Cl)cc(NS(C)(=O)=O)c2F)n1 [encorafenib]
Procedure, shortened: as §1

[3] = compound: COC(=O)[C@H](CCSC)NC(=O)C1=C(C=C(C=C1)NC[C@H](CS)N)C2=CC=CC=C2
Procedure, shortened: as §1

alisertib = compound: COc1cc(Nc2ncc3c(n2)-c2ccc(Cl)cc2C(c2c(F)cccc2OC)=NC3)ccc1C(=O)O [alisertib]
Procedure, shortened: as §1

[4] = compound: COc1cc2nc(-c3cc(F)ccc3O)nc(N[C@@H]3CNC[C@H]3C(C)(C)O)c2cc1OC
Procedure, shortened: as §1

gefitinib = compound: COc1cc2ncnc(Nc3ccc(F)c(Cl)c3)c2cc1OCCCN1CCOCC1 [gefitinib]
Procedure, shortened: as §1

[5] = compound: CCn1c(C(=O)N(C2CC2)C2CC2)cc2c3c(ncn3C)c(Nc3cc(C)n(C)n3)nc21
Procedure, shortened: as §1

[6] = compound: CCn1cc(-c2ccnc3[nH]c(-c4cccc(CN(C)C)c4)cc23)c(-c2ccc(NC(=O)N(C)C)cc2)n1
Procedure, shortened: as §1

[7] = compound: CN1CCC(CNc2ccc3ncc(-c4cccc(OC(F)(F)F)c4)n3n2)CC1
Procedure, shortened: as §1

saracatinib = compound: CN1CCN(CCOc2cc(OC3CCOCC3)c3c(Nc4c(Cl)ccc5c4OCO5)ncnc3c2)CC1 [saracatinib]
Procedure, shortened: as §1

sotrastaurin = compound: CN1CCN(c2nc(C3=C(c4c[nH]c5ccccc45)C(=O)NC3=O)c3ccccc3n2)CC1 [sotrastaurin]
Procedure, shortened: as §1

alvocidib = compound: CN1CC[C@H](c2c(O)cc(O)c3c(=O)cc(-c4ccccc4Cl)oc23)[C@H](O)C1 [alvocidib]
Procedure, shortened: as §1

Tubastatin A = compound: CN1CCc2c(c3ccccc3n2Cc2ccc(C(=O)NO)cc2)C1 [Tubastatin A]
Procedure, shortened: as §1

[8] = compound: CNC(=O)C1=CC=CC=C1NC2=NC(=NC=C2Cl)NC3=C(C=C(C=C3)N4CCOCC4)OC
Procedure, shortened: as §1

[9] = compound: CNc1nc(-c2ccc3c(N)n[nH]c3c2)cc(N2C[C@@H](C(=O)NC3CCCCC3)CC[C@H]2C)n1
Procedure, shortened: as §1

barasertib = compound: CCN(CCCOc1ccc2c(Nc3cc(CC(=O)Nc4cccc(F)c4)[nH]n3)ncnc2c1)CCOP(=O)(O)O [barasertib]
Procedure, shortened: as §1

Measured: log2 fold change

OCIAD1 (UniProt D6RDK6)
inactive: vemurafenib 0.15 | [1] -0.039 | [2] -0.048 | volasertib 0.019 | defactinib -0.119 | encorafenib 0.014 | [3] 0.029 | alisertib 0.004 | [4] 0.075 | gefitinib 0.045

PAGE2B (UniProt Q5JRK9)
inactive: vemurafenib 0.008 | [1] -0.056 | [2] -0.027 | volasertib -0.013 | [5] -0.008 | [6] -0.034 | [7] -0.239 | saracatinib 0.176 | sotrastaurin 0.05 | alvocidib 0.059 | Tubastatin A 0.175 | [8] 0.097 | defactinib 0.253 | [9] 0.072 | encorafenib 0.089 | [3] -0.001 | alisertib 0.053 | [4] -0.091 | gefitinib -0.051

PAPOLG (UniProt Q9BWT3)
inactive: vemurafenib -0.176 | [2] -0.04 | [5] -0.02 | [6] -0.013 | [7] -0.049 | saracatinib -0.235 | sotrastaurin 0.031 | alvocidib -0.008 | Tubastatin A 0.16 | [8] 0.003 | defactinib -0.025 | [9] 0.085 | encorafenib 0.063 | [3] 0.098 | alisertib -0.035 | gefitinib 0.062

PACSIN1 (UniProt Q9BY11)
inactive: vemurafenib -0.021 | [1] -0.051 | barasertib -0.008 | [2] 0.013 | volasertib 0.033 | [5] 0.014 | [6] 0.014 | [7] 0.032 | saracatinib 0.037 | alvocidib -0.097 | Tubastatin A 0.02 | [8] 0.025 | defactinib -0.001 | [9] 0.041 | encorafenib 0.077 | [3] -0.053 | alisertib 0.005 | [4] 0.014 | gefitinib 0.015

NVL (UniProt O15381)
inactive: vemurafenib -0.032 | [1] 0.028 | barasertib 0.089 | volasertib 0.005 | [5] 0.055 | [6] -0.025 | [7] 0.052 | saracatinib -0.009 | sotrastaurin 0.006 | alvocidib -0.061 | Tubastatin A -0.144 | [8] -0.038 | defactinib -0.005 | [9] -0.067 | alisertib 0.024 | [4] 0.072 | gefitinib 0.067

PAAT (UniProt Q9H8K7)
inactive: vemurafenib 0.02 | [1] -0.024 | barasertib -0.016 | [2] -0.05 | volasertib 0.116 | [5] 0.018 | [6] 0.061 | [7] -0.042 | saracatinib -0.001 | sotrastaurin -0.034 | alvocidib 0.009 | Tubastatin A -0.019 | [8] -0.044 | defactinib 0.042 | [9] 0.039 | encorafenib 0.012 | [3] -0.002 | [4] 0.089

PABPN1 (UniProt Q86U42)
inactive: [1] -0.01 | barasertib -0.01 | [2] 0.097 | volasertib 0.092 | [5] -0.057 | [6] -0.084 | [7] 0.085 | saracatinib -0.035 | sotrastaurin -0.022 | alvocidib -0.153 | Tubastatin A 0.088 | [9] 0.079 | encorafenib -0.177 | [3] 0.184 | alisertib 0.036 | [4] 0.006 | gefitinib 0.007
